Assay results reported in patent EP2545915A1, “2-amino-2-oxoethyl trans-3-[5-(6-methoxy-naphtalen-1-yl)-1,3-dioxan-2-yl]propyl-carbamate for use in the treatment of persistent cancer pain” (SANOFI, priority 2011, dated 2013).
Where two headings read alike, the source gives them in different places.

System: UDP-glucuronosyl transferase
Conditions: morphine 0.1 to 7.5 mM, HLM 0.5 mg/mL, 30 min, Michaelis-Menten

## CN1CC[C@]23c4c5ccc(O)c4O[C@H]2[C@@H](O)C=C[C@H]3[C@H]1C5 [Morphine]
read-out: Km (M3G)
  Km: 2590 µM
read-out: Km (M6G)
  Km: 2110 µM
